The nature of data set [1]: general procedure: Boc solid-phase peptide synthesis; benzhydrylamine (BHA), 4-methylbenzhydrylamine (MBHA), chloromethyl, hydroxymethyl or SASRIN resin. Particulars: for cyclisation yield: cyclisation step.
The nature of data set [2]: general procedure: Boc solid-phase peptide synthesis; MeBHA. Particulars: whole synthesis.
A short description of data set [3]: general procedure: Boc solid-phase peptide synthesis; BHA. Particulars: whole synthesis, scale 1 mmol.

From patent publication US5643872A (SmithKline Beecham Corporation, priority 1994, dated 1997) come the findings set out here.

HELM strings list residues between dots; [ac] is acetyl, [am] amide, other brackets name non-standard units.

As to cyclo-(1,6)-Pro-Arg-Gly-Asp-Gly-D-Phe, in data set [1], the cyclisation yield turned out to be 84%. The crude mass in data set [1] (whole synthesis) stood at 462 mg.

As to “PEPTIDE1{R.G.D.F.R.G.D.F}$PEPTIDE1,PEPTIDE1,1:R1-8:R2$$$V2.0”, in data set [1], the cyclisation yield was determined as 100%. Besides, in data set [1] (whole synthesis), the crude mass is on record as 247 mg and the isolated mass is reported as 26 mg.

On to “PEPTIDE1{[ac].C.R.G.D.S.[MeArg].G.D.S.C.[am]}$PEPTIDE1,PEPTIDE1,2:R3-11:R3$$$V2.0”, for which the crude mass in data set [2] (scale 1.0 mmol) came to 409 mg.

For the substance “PEPTIDE1{[MeArg].G.D.F.R.G.D.F}$PEPTIDE1,PEPTIDE1,1:R1-8:R2$$$V2.0”, the cyclisation yield in data set [1] was 95%. In data set [1] (whole synthesis), this substance showed a crude mass of 406 mg.

cyclo-(1,6)-Gly-Pro-Arg-Gly-Asp-D-Pro: in data set [1], the cyclisation yield amounted to 42%. Moreover, the crude mass in data set [1] (whole synthesis) amounted to 280 mg.

In data set [2] (scale 0.5 mmol), “PEPTIDE1{[ac].C.[MeArg].G.D.[Pcs(2R,3S)].[am]}$PEPTIDE1,PEPTIDE1,2:R3-6:R3$$$V2.0” gave an isolated mass of 80 mg.

In turn, “PEPTIDE1{P.R.G.D.[dF].P.R.G.D.[dF]}$PEPTIDE1,PEPTIDE1,1:R1-10:R2$$$V2.0” showed a cyclisation yield in data set [1] of 100%. In data set [1] (whole synthesis), the crude mass stood at 370 mg.

In data set [3], “PEPTIDE1{G.[MeArg].G.D.S.E.[am]}$PEPTIDE1,PEPTIDE1,1:R1-6:R3$$$V2.0” showed a crude mass of 680 mg and a crude yield of 100%. In data set [1] (whole synthesis), this substance returned an isolated mass of 356.8 mg.

In data set [3], “PEPTIDE1{G.R.G.D.S.E.[am]}$PEPTIDE1,PEPTIDE1,1:R1-6:R3$$$V2.0” registered a crude mass of 566 mg and a crude yield of 94%. For the same substance, the isolated mass in data set [1] (whole synthesis) is given as 137 mg.

As to cyclo-(1,6)-Pro-Arg-Gly-Asp-Gly-D-Pro, the cyclisation yield in data set [1] is 63%.

Regarding “N^α Ac-cyclo-(S,S)-Cys-Arg-Gly-Asp-Ser-Arg-Gly-Asp-Ser-Pen-NH2”, the crude mass in data set [1] (whole synthesis) was found to be 1000 mg. This substance also displayed a crude yield in data set [1] (whole synthesis, scale of the general procedure 1.0 mmol) of 100%.

Consider “PEPTIDE1{P.G.R.G.D.[dP]}$PEPTIDE1,PEPTIDE1,1:R1-6:R2$$$V2.0”, for which the cyclisation yield in data set [1] is given as 31%. The same substance came in with a crude mass in data set [1] (whole synthesis) of 156 mg.

In data set [2] (scale 1.0 mmol), “PEPTIDE1{[ac].C.[MeArg].G.D.S.R.G.D.S.C.[am]}$PEPTIDE1,PEPTIDE1,2:R3-11:R3$$$V2.0” showed an isolated mass of 800 mg.

On to “PEPTIDE1{[ac].C.R.G.D.S.R.G.D.S.C.[am]}$PEPTIDE1,PEPTIDE1,2:R3-11:R3$$$V2.0”, for which, in data set [2] (scale 1.0 mmol), the isolated mass is given as 800 mg and the isolated yield turned out to be 80%.

In the case of “PEPTIDE1{[dA].R.G.D.S}$PEPTIDE1,PEPTIDE1,1:R1-5:R2$$$V2.0”, the cyclisation yield in data set [1] was 67%. Moreover, the crude mass in data set [1] (whole synthesis) was found to be 73 mg.

The substance “PEPTIDE1{G.R.G.D.S.P}$PEPTIDE1,PEPTIDE1,1:R1-6:R2$$$V2.0” yielded a cyclisation yield in data set [1] of 88%. In addition, in data set [1] (whole synthesis), the crude mass worked out at 256 mg.

Consider “PEPTIDE1{[ac].C.[MeArg].G.D.[Pcs(2R,3R)].[am]}$PEPTIDE1,PEPTIDE1,2:R3-6:R3$$$V2.0”, for which the isolated mass in data set [2] (scale 0.5 mmol) worked out at 92 mg.

As to cyclo-(1,5)-Ala-Arg-Gly-Asp-D-Ser, the cyclisation yield in data set [1] is on record as 67%. Also, the crude mass in data set [1] (whole synthesis) stood at 208 mg.
